Data as given in PubChem BioAssay AID720505 (Drosophila RNAi Screening Center, 2013).
Aim: 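Knock-downs that reduce calcium influx once internal stores are emptied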 (primary screen). Cell system: Drosophila S2R+ cells. Reagent: long dsRNA against Drosophila genes. Challenge: thapsigargin (2 µM) in calcium-free buffer to empty internal stores, then 2 mM calcium added back. Measurement: 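Fluo-4 signal in 384-well plates read on a FLIPR after thapsigargin (2 µM, calcium-free) store depletion and 2 mM calcium add-back; unnormalised mean endpoint per well; screen run twice, selected wells retested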. Direction: calcium signal: higher = more calcium entry after store depletion. Call rule: 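About 1500 genes called as lowering calcium entry, by varying amounts, judged against per-plate control wells with STIM1 as positive and Rho1 as negative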. Calls: active = called as lowering calcium entry; inactive = not called.
The screen tested about 20,000 reagents; below is a random part of those with a known target gene and a result. Over the whole deposit, about 2,100 (10%) got an active call. 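Raw plate signals without normalisation; calls rest on control-based scores that were not deposited; replicate 2 separates called from uncalled poorly.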 A plus sign joins genes that one reagent is predicted to hit. Not stated in the record: the amount of reagent, the time to read-out.

For CG18808 [DRSC08539], the values are calcium signal, replicate 1 = 102; calcium signal, replicate 2 = 57.6; inactive.
After knock-down of CG30349 [DRSC06421], the record shows calcium signal, replicate 1 = 62.1; calcium signal, replicate 2 = 121; active.
Depletion of CG30349 [DRSC06839] came out at: calcium signal, replicate 1 = 64.8; calcium signal, replicate 2 = 105; active.
With knock-down of CG30471 [DRSC07096], the screen gave calcium signal, replicate 1 = 112; calcium signal, replicate 2 = 99.9; inactive.
For CG15125 [DRSC06547] the deposit lists calcium signal, replicate 1 = 185; calcium signal, replicate 2 = 113; inactive.
Knock-down of Las [DRSC11772] resulted in: calcium signal, replicate 1 = 61.3; calcium signal, replicate 2 = 119; active.
With knock-down of CG9331 [DRSC03206], the record shows calcium signal, replicate 1 = 95.7; calcium signal, replicate 2 = 78.4; inactive.
CG4630 [DRSC06874] gave calcium signal, replicate 1 = 148; calcium signal, replicate 2 = 132; inactive.
CG14105 [DRSC10107] gave calcium signal, replicate 1 = 91.5; calcium signal, replicate 2 = 77.6; inactive.
Knock-down of Mip [DRSC10639] came out at: calcium signal, replicate 1 = 168; calcium signal, replicate 2 = 151; inactive.
Silencing of CG11899 [DRSC16656] gave: calcium signal, replicate 1 = 109; calcium signal, replicate 2 = 91; inactive.
CG10750 [DRSC02105] gave calcium signal, replicate 1 = 128; calcium signal, replicate 2 = 108; inactive.
Gr92a [DRSC21631] showed calcium signal, replicate 1 = 126; calcium signal, replicate 2 = 89.3; inactive.
With knock-down of Ype [DRSC20301] the results were calcium signal, replicate 1 = 170; calcium signal, replicate 2 = 133; inactive.
With knock-down of Miga [DRSC17821] the results were calcium signal, replicate 1 = 214; calcium signal, replicate 2 = 135; inactive.
With knock-down of Pi3K59F [DRSC04640] the results were calcium signal, replicate 1 = 158; calcium signal, replicate 2 = 93.2; inactive.
mip130 [DRSC18575] gave calcium signal, replicate 1 = 120; calcium signal, replicate 2 = 165; inactive.
After knock-down of Pde8 [DRSC04503], the record shows calcium signal, replicate 1 = 144; calcium signal, replicate 2 = 87; inactive.
With knock-down of CG43326 + CG43325 [DRSC04157] the results were calcium signal, replicate 1 = 84.5; calcium signal, replicate 2 = 188; inactive.
Silencing of Rpt2 [DRSC16799] gave: calcium signal, replicate 1 = 179; calcium signal, replicate 2 = 205; inactive.
For CG3337 [DRSC15478], the values are calcium signal, replicate 1 = 100; calcium signal, replicate 2 = 142; inactive.
CG6654 [DRSC16084] showed calcium signal, replicate 1 = 141; calcium signal, replicate 2 = 95.2; inactive.
Silencing of CG5050 [DRSC02807] came out at: calcium signal, replicate 1 = 128; calcium signal, replicate 2 = 102; inactive.
After knock-down of CG15169 [DRSC02470], the screen gave calcium signal, replicate 1 = 149; calcium signal, replicate 2 = 79.4; inactive.
jigr1 [DRSC15233] scored calcium signal, replicate 1 = 114; calcium signal, replicate 2 = 124; inactive.
After knock-down of jigr1 [DRSC22617], the record shows calcium signal, replicate 1 = 93; calcium signal, replicate 2 = 244; inactive.
Depletion of Acat2 [DRSC08630] gave: calcium signal, replicate 1 = 88.5; calcium signal, replicate 2 = 106; inactive.
Zif [DRSC12514] gave calcium signal, replicate 1 = 131; calcium signal, replicate 2 = 133; inactive.

Look-ups from the list:
Value for Miga [DRSC17821] in “calcium signal, replicate 1”: 214
CG43326 + CG43325 [DRSC04157], outcome: inactive
Mip [DRSC10639], calcium signal, replicate 1 = 168
